Experimental data published in article PMC9570119.
Results are given in words; binding and its absence hold for the method and conditions named. In cells and extracts the contact can be indirect. Some results given as binding are weak or reduced against the parent protein; the word gives no strength. Sequences can lack the tags named with a protein.

Biological target: FLAG-tagged FAIM-S (Fas Apoptosis Inhibitory Molecule, short form) expressed in HLE B-3 cells (human) (UniProt Q9NVQ4)
Experiment: co-IP; HLE B-3 cells, treated and harvested as the HeLa cells (FLAG-FAIM-S, cellular stress induction); anti-FLAG immunoprecipitation; Western blot for HSP27, αA- and αB-crystallin

B1: αB-crystallin (protein, UniProt P02511 1-175)
chain: MDIAIHHPWIRRPFFPFHSPSRLFDQFFGEHLLESDLFPTSTSLSPFYLRPPSFLRAPSWFDTGLSEMRLEKDRFSVNLDVKHFSPEELKVKVLGDVIEVHGKHEERQDEHGFISREFHRKYRIPADVDPLTITSSLSSDGVLTVNGPRKQVSGPERTIPITREEKPAVTAAPKK
In the case of B1, the binding is reported as “binds”.
